No constants are given. Whether binding was seen depends on the method and setting. In cells and extracts the contact can be indirect. Binding calls can cover weak binding; strength is not graded here.
Target: Ras-related protein Rab-11A (mouse (endogenous in brain synaptoneurosomes))
Assay: co-IP

binding: binds
B1: autophagy-related protein 9A (protein, UniProt Q68FE2 1-839)
chain: MAQFDTEYQRLEASYSDSPPGEEDLLVHVAEGSKSPWHHIENLDLFFSRVYNLHQKNGFTCMLIGEMFELMQFLFVVAFTTFLVSCVDYDILFANKMVNHSLHPTEPVKVTLPDAFLPAQVCSARIQENGSLITILVIAGVFWIHRLIKFIYNICCYWEIHSFYLHALRIPMSALPYCTWQEVQARIVQTQKEHQICIHKRELTELDIYHRILRFQNYMVALVNKSLLPLRFRLPGLGEVVFFTRGLKYNFELILFWGPGSLFLNEWSLKAEYKRGGQRLELAQRLSNRILWIGIANFLLCPLILIWQILYAFFSYAEVLKREPGALGARCWSLYGRCYLRHFNELEHELQSRLNRGYKPASKYMNCFLSPLLTLLAKNGAFFAGSILAVLIALTIYDEDVLAVEHVLTTVTLLGVTVTVCRSFIPDQHMVFCPEQLLRVILAHIHYMPDHWQGNAHRSQTRDEFAQLFQYKAVFILEELLSPIVTPLILIFCLRPRALEIIDFFRNFTVEVVGVGDTCSFAQMDVRQHGHPQWLSGGQTEASVYQQAEDGKTELSLMHFAITNPGWQPPRESTAFLGFLKEQVQRDGAAAGLAQGGLLPENALFTSIQSLQSESEPLSLIANVVAGSSCRGPSLSRDLQGSRHRADVASALRSFSPLQPGAAPQGRVPSTMTGSGVDARTASSGSSVWEGQLQSLVLSEYASTEMSLHALYMHQLHKQQTQAEPERHVWHRRESDESGESAPEEGGEGARAPQPIPRSASYPCATPRPGAPETTALHGGFQRRYGGITDPGTVPRGPSHFSRLPLGGWAEDGQPASRHPEPVPEEGSEDELPPQVHKV

— article doi:10.1101/2022.05.20.492668
